Measured data: PubChem BioAssay AID1259424 (University of Nebraska Medical Center, 2018)
In all, the deposit lists about 14,000 reagents; this is an unselected part. 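Higher correlation or smaller distance means closer resemblance to KSR1 loss; control wells, including KSR1 knockdowns, recur on many plates.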 The numbers tell different reagents against one gene apart. Not all columns of the deposit are shown. The record does not give: the time to read-out.

Aim: 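Seek colon cancer survival genes behaving like KSR1, using a six-gene signature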 (primary screen)
Cell system: human HCT116 colon cancer cells
Reagent: siRNA pool against human genes, 50 nM
Measurement: 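Six signature mRNAs by branched-DNA multiplex assay, scaled to two housekeeping genes and non-targeting median, log2; matched to mean KSR1 knockdown profile by Pearson correlation and euclidean distance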
Scale: mean correlation with KSR1 profile: higher = expression change more like KSR1 knockdown

Target gene	reagent no.	mean correlation with KSR1 profile
OAS3	1	-0.284
PPID	1	0.631
IFT80	1	0.145
DDIT4	1	-0.344
ICA1L	1	0.12
ICA1L	2	0.208
HLA-DMB	1	-0.626
VEGFC	1	-0.152
CCT3	1	-0.555
AGBL5	1	0.704
ARHGEF28	1	-0.368
GALNT12	1	0.261
NCEH1	1	0.519
CHCHD2	1	0.931
RHBDL2	1	-0.142
PLPBP	1	-0.455
CSTPP1	1	-0.258
SYNE3	1	0.326
GRIA4	1	0.0387
UPF2	1	-0.583
LSM14A	1	-0.251
BRD8	1	-0.509
MUC7	1	-0.13
OVGP1	1	-0.423
CDY2A	1	0.0689
MECP2	1	-0.214
SP7	1	-0.115
RHOD	1	-0.416
PCDHA1	1	-0.361
CDC40	1	-0.116
RPLP0	1	-0.246
STK32B	1	0.617
TACR3	1	0.981
MRPL57	1	0.0495
KCNJ12	1	-0.596
IQCC	1	0.168
FCGR1A	1	-0.746
GYS2	1	0.481
ZNF107	1	-0.606
CBX5	1	0.209
SCYL1	1	0.169
C17orf75	1	0.137
POU6F1	1	-0.629
PSMD4	1	0.579
PPP1R3E	1	0.698
WASHC3	1	-0.647
IPO9	1	0.546
MRPL24	1	0.0155
RNF17	1	-0.948
RNF17	2	-0.241
KMT2A	1	0.517
KMT2A	2	0.204
SORBS3	1	-0.866
PIP5K1P1	1	-0.372
PDLIM5	1	-0.318
RELA	1	0.38
BMI1	1	-0.67
DENND2B	1	0.82
SLC7A6	1	0.871
MAPK15	1	-0.0149
CHRAC1	1	0.558
SH3BGRL	1	-0.0814
CHAF1B	1	-0.375
